Experimental data taken from patent US20100112089A1, “PEPTIDE COMPOUND AND USE THEREOF” (Takeda Pharmaceutical Company Limited, priority 2008, published 2010).
Counter-ions that a name gives are not always drawn. Like-named read-outs stand apart in the source and are kept apart here. At least one peptide structure holds a part that was inferred or is arguable (an end, a ring closure or a residue). Square brackets hold non-standard residues; d marks the D form. Peptide text beside a SMILES is read from it. dPhe(F5) = N[C@H](Cc1c(F)c(F)c(F)c(F)c1F)C(=O)O; dBpa = N[C@H](Cc1ccc(C(=O)c2ccccc2)cc1)C(=O)O; dCha = N[C@H](CC1CCCCC1)C(=O)O

Legend:
[1] = test system: MIAPaCa2 cells; assay: Platinum concentration and platinum on genomic DNA (ICP-MS); format: cell-based
[2] = test system: NCI-H226 subcutaneous xenograft tumor; assay: Subcutaneous tumor xenograft model; format: in vivo, SCID mice; conditions: CBP501 7.5 mg/kg intra-venous bolus injection
Description: A suspension of NCI-H226 cells was injected subcutaneously into the flanks of six weeks old male severe […] combined immune deficiency (SCID) mice (Charles River Lab., Wilmington, Mass.). The size of tumors was measured three times a week using a caliper. The volumes were calculated using the following formula: volume (cm^3)=[width^2 (mm)×length (mm)]/2000. The relative tumor volume was expressed as the Vt/V0 index, where Vt is the tumor volume on a measured day, and V0 is the volume of the same tumor just before the first treatment. Mean relative tumor sizes with standard error of mean, SEM, were plotted. Body weight was measured three times weekly from the first treatment, and the weight change was expressed as a percentage of the initial weight. Animals were housed in accordance with guidelines from the Association for the Assessment and Accreditation of Laboratory Animal Care International, and the protocols were approved by the institutional animal care committee of CanBas Co., Ltd.
The statistical significance of the differences of the relative tumor volume between groups was determined by Student's t tests.

[3] = test system: NCI-H226 cells; assay: Intracellular platinum concentration (ICP-MS); format: cell-based; conditions: cisplatin 1, 3, 9 μg/ml with CBP501 0.2, 2.0 μM, 3 hr; also after additional 45 hr
[4] = test system: malignant pleural mesothelioma cell lines NCI-H226, MSTO-211H, NCI-H28, NCI-H2452; assay: Cell cycle analysis (FACS), G2/M accumulation; format: cell-based
[5] = test system: HUVEC cells; assay: Platinum concentration and platinum on genomic DNA (ICP-MS); format: cell-based, human
[6] = test system: NCI-H226 cells; format: cell-based
Description: The cells were harvested and lysed in a lysis buffer [50 mM Tris-HCl (pH 8.0), 5 mM EDTA (pH 8.0), 100 mM NaCl, 0.5% NP-40, 2 mM DTT, 50 mM NaF, 1 mM Na3VO4, 1 μM microcystin, proteinase inhibitors cocktail (Roche, Mannheim, Germany)] for 30 min on ice and the lysates were clarified by centrifugation at 15,000 rpm for 20 min at 4° C. Protein concentration of the supernatants was evaluated using a detergent-compatible protein assay kit (Bio-Rad, Hercules, Calif.) according to the manufacturer's instructions. Whole cell lysates (60 μg) were run on a 10-12% SDS-PAGE gel, and transferred onto polyvinylidene difluoride (PVDF) membranes (Bio-Rad). The membrane was blocked at room temperature for 1 hr in TBST (0.1% Tween 20 in TBS) containing 2% ECL Advance Blocking Reagent (GE healthcare, Waukesha, Wis.) and incubated with primary antibody overnight at 4° C. The membrane was incubated with anti-peroxidase conjugated secondary antibody (Cell Signaling) for 1 hr at room temperature and analyzed using the enhanced chemiluminescence detection system (ECL Advance Western Blotting Detection Kit, GE healthcare).

[7] = test system: NCI-H226 cells; assay: Confocal immunofluorescence analysis of damage foci; format: cell-based
Description: The cells were fixed in ice-cold methanol at −20° C. for 20 min, and blocked with PBS containing 5% BSA for 45 min. Cells were then incubated with anti-γ-H2AX, anti-ATM p-Ser1981, anti-DNA-PKcs p-Thr2609, anti-NBS1 p-Ser343, or anti-SMC1 p-Ser957 antibodies overnight at 4° C., followed by incubation with Alexa 594-conjugated secondary antibody (Invitrogen, Carlsbad, Calif.) for 1 hr at room temperature in the dark. Cell nuclei were stained using Hoechst 33342. Fluorescence was visualized and analyzed using Becton Dickinson Pathway450. The intensity of the nuclei and number of foci was assessed by ATTOVision and IPLab software (Becton Dickinson), respectively.

[8] = test system: HT29 cells; assay: Platinum concentration and platinum on genomic DNA (ICP-MS); format: cell-based
[9] = test system: patients with locally advanced or metastatic solid tumors; assay: Phase I single agent study of CBP501 (Study A): MTD, DLT, safety, antitumor activity; format: in vivo, human; conditions: pancreas, ovarian
From the text: PK was examined in cycle (cy) 1. MTD is the level below that where 2 of 3-6 patients (pts) have DLT during cy 1-2.
A minimum of 3 patients were to be enrolled at each dose level, and 6 in the event of DLT.
(1) Neutropenia Gr 4 lasting 7 days (5 days in combination study) or Gr 3-4 neutropenia with fever and/or infection, (2) Thrombocytopenia Gr 4 (or grade 3 with bleeding), (3) Treatment-related non-hematological toxicity Gr 3 or 4 (excluding Gr 3 vomiting or diarrhea with sub-optimal prophylactic and curative treatment), and (4) Dosing delay greater than 2 weeks or treatment discontinuation due to treatment-emergent adverse events or related severe laboratory abnormalities.
The MTD was defined as the dose level below that in which DLT was observed during the first 2 cycles in at least 2 out of the 3-6 patients assessable for determination of MTD. The MTD was to be the RD for future studies. Patients evaluable for MTD were those who completed 2 treatment cycles or experienced DLT during the first 2 cycles.
(1) Echocardiogram or MUGA scan (baseline and every 2 cycles), (2) Cardiac enzymes (CPK-MB, CPK-MM, troponin; baseline and prior to each administration), and (3) ECG (before infusion, end of infusion, and 1 hr after infusion end). […]

[10] = General properties: dissolution in water; format: physicochemical; conditions: dissolved at 50 mg/mL in water
[11] = 10 μM CBP501 and 3 μg/ml cisplatin, 3 hr
[12] = co-treatment with cisplatin vs cisplatin alone, data not shown

With `N=C(N)NCCC[C@@H](NC(=O)[C@@H](CCCNC(=N)N)NC(=O)[C@@H](CCC(N)=O)NC(=O)[C@@H](CCCNC(=N)N)NC(=O)[C@@H](CCCNC(=N)N)NC(=O)[C@@H](CCCNC(=N)N)NC(=O)[C@@H](CC1CCCCC1)NC(=O)[C@@H](Cc1c(F)c(F)c(F)c(F)c1F)NC(=O)[C@@H](CO)NC(=O)[C@@H](Cc1c[nH]c2ccccc12)NC(=O)[C@@H](CO)NC(=O)[C@H](N)Cc1ccc(C(=O)c2ccccc2)cc1)C(=O)O` [CBP501, H-(D)p-Benzoylphenylalanyl-(D)seryl-(D)tryptophyl-(D)seryl-(D)pentafluorophenylalanyl-(D)cyclohexylalanyl-(D)arginyl-(D)arginyl-(D)arginyl-(D)glutaminyl-(D)arginyl-(D)arginine acetate salt] (H-[dBpa][dS][dW][dS][dPhe(F5)][dCha][dR][dR][dR][dQ][dR][dR]-OH) as the compound, how does the DNA-platinum adducts [1, 11] read?
The DNA-platinum adducts was “also increased”.

What about the “platinum concentration in cells” value [1, 12] of the same compound?
Its value is “increased”.

And the tumor growth [2]?
Its tumor growth is “suppressed tumor growth”.

What about the “concentration of platinum in cells” value [3] of the same compound?
Its value is “increased”.

And the “effect on cell cycle distribution” value ([4]; CBP501 alone, up to 25 μM, data not shown)?
Its value is “did not alter the cell cycle distribution”.

What about the “augmentation of DNA damage, by DNA damaging agent” value ([4]; not with doxorubicin, camptothecin, X-irradiation or 5-FU, data not shown) of the same compound?
The value was “observed only with bleomycin and cisplatin, and to a lesser extent with carboplatin and oxaliplatin”.

And the “dose level of CBP501 already at the plateau level” value ([4]; simultaneous cisplatin and CBP501 for 3 hr, FACS on day 3)?
The value was 0.2 µL.

What about the DNA-platinum adducts [5, 11] of the same compound?
Its DNA-platinum adducts is “not”.

And the “platinum concentration in cells” value [5, 12]?
Its value is “no effect”.

And the “phosphorylation status or protein levels of checkpoint proteins” value ([6]; CBP501 itself, data not shown)?
Its value is “did not change”.

And the “phosphorylation of CDC25C (Ser 216)” value ([6]; bleomycin and CBP501, from 6 hr until 9 hr after treatment)?
The value was “began to decrease”.

And the CHK2 protein ([6]; cisplatin and CBP501, after 15 hr of treatment)?
The CHK2 protein was “decreased”.

What about the CHK2 protein ([6]; co-treatment of CBP501 with bleomycin) of the same compound?
The CHK2 protein was “dramatic disappearance”.

What about the “phosphorylation of ATM (Ser1981), H2AX, MAPKAPK2 (Thr222), CHK2 (Thr68), CHK1 (Ser317)” value ([6]; co-treatment of CBP501 with cisplatin, weaker and slower than with bleomycin) of the same compound?
The value was “increased the phosphorylation”.

What about the “phosphorylation of ATM (Ser1981), H2AX, and CHK1 (Ser317)” value ([6]; co-treatment with 2 μm of CBP501 and bleomycin 2 μg/ml) of the same compound?
Its value is “dramatically increased”.

And the “bleomycin-induced formation of foci” value ([7]; 0.2 or 2 μM CBP501 added to bleomycin 0.4 μg/ml)?
The value was “significantly increased”.

And the foci formation ([7]; CBP501 alone, data not shown)?
The foci formation was “did not induce foci formation”.

What about the “foci numbers (quantitative foci count)” value ([7]; bleomycin plus CBP501 compared to bleomycin alone, 9 hr or 12 hr after treatment) of the same compound?
The value was “significantly increased”.

What about the DNA-platinum adducts [8, 11] of the same compound?
The DNA-platinum adducts was “not”.

And the “platinum concentration in cells” value [8, 12]?
Its value is “no effect”.

What about the “pts with stable disease (SD) for 7 cy” value [9] of the same compound?
Its value is 2.

What about the “appearance of solution when dissolved in water” value [10] of the same compound?
Its value is “clear and colorless solution”.
